Measurements taken from patent US9062024B2, “Nitrogen-containing heterocyclic compound and salt thereof, and a fungicide for agricultural and horticultural use” (Nippon Soda Co., Ltd., priority 2009, dated 2015).
Some results were stated once for a whole list of compounds, not compound by compound. For at least one compound, name, drawing or mass did not settle the structure.

Assays:
[1] = system: apple scab pathogen (Venturia inaequalis); assay: Apple scab control test; assay type: in vivo; settings: emulsion sprayed at active ingredient concentration of 100 ppm onto apple seedlings; inoculated with conidiospores, held 2 weeks at 20° C.; lesions compared with untreated seedlings
[2] = system: cucumber gray mold pathogen (Botrytis cinerea); assay: Cucumber gray mold control test; assay type: in vivo; settings: emulsion sprayed at active ingredient concentration of 100 ppm onto cucumber seedlings; drip-inoculated with conidiospore suspension, held 4 days in the dark at 20° C.; lesions compared with untreated seedlings

Structure (SMILES)	control values [1]	control values [2]
CC1(C)CN=C(c2cnc3c(c2)CCCC3)c2cccc(F)c2C1 [Compound A1-52]	≥ 75%	≥ 75%
CC1(C)CN=C(c2cnc3sccc3c2)c2cccc(F)c2C1 [Compound A1-53]	≥ 75%	≥ 75%
CC1(C)CN=C(c2cnc3ccccc3c2)c2ccccc2C1 [Compound B2-3, 4,4-dimethyl-1-(3-quinolinyl)-4,5-dihydro-3H-2-benzazepine]	≥ 75%	≥ 75%
CC1(C)CN=C(c2cnc3ccccc3c2)c2cccc(Cl)c2C1 [Compound B2-11]	≥ 75%	≥ 75%
CC1(C)CN=C(c2cnc3ccccc3c2)c2cccc(F)c2C1 [Compound B2-12]	≥ 75%	≥ 75%
CC1(C)CN=C(c2cnc3c(F)cccc3c2)c2ccccc2C1 [Compound B2-15]	≥ 75%	≥ 75%
CC1(C)CN=C(c2cnc3c(F)cccc3c2)c2cccc(F)c2C1 [Compound B2-18]	≥ 75%	≥ 75%
CC1(C)CN=C(c2cnc3c(F)cccc3c2)c2cccc(Cl)c2C1 [Compound B2-19]	≥ 75%	≥ 75%
CC1(C)CCN=C(c2cnc3ccccc3c2)c2ccccc21 [Compound B2-25, 5,5-dimethyl-1-(3-quinolinyl)-4,5-dihydro-3H-2-benzazepine]	≥ 75%	≥ 75%
CC1(C)CCN=C(c2cnc3c(F)cccc3c2)c2ccccc21 [Compound B2-26]	≥ 75%	≥ 75%
CC1(C)CN=C(c2cnc3ccccc3c2)c2ccccc2C1(C)C [Compound B2-27]	≥ 75%	≥ 75%
CC1(C)CCN=C(c2cnc3ccccc3c2)c2cccc(F)c21 [Compound B2-28]	≥ 75%	≥ 75%
CC1(C)CCN=C(c2cnc3c(F)cccc3c2)c2cccc(F)c21 [Compound B2-29]	≥ 75%	≥ 75%
CC1(C)CCN=C(c2cnc3ccccc3c2)c2cccc(Cl)c21 [Compound B2-30]	≥ 75%	≥ 75%
CC1(C)CCN=C(c2cnc3c(F)cccc3c2)c2cccc(Cl)c21 [Compound B2-32]	≥ 75%	≥ 75%
CC1(C)CNC(c2cnc3ccccc3c2)c2cccc(F)c2C1 (centres unmarked) [Compound B6-17]	≥ 75%	≥ 75%
